Reference: US10548911B2, “Small molecule anti-scarring agents” (UNIVERSITY OF ROCHESTER, priority 2014, dated 2020)
Some entries share one result that the patent states for a list of compounds.

Tested on: human fibroblasts
Assay: BrdU incorporation assay (cell proliferation)
Type: cell-based
Details: 250 nM plus TGFβ
Procedure: Human fibroblasts were seeded on a 96-well plate at a density of 1×10^5 cells/well. Cells were treated in triplicate. Cell proliferation was determined using the bromodeoxyuridine (BrdU) assay following manufacturer's instructions. Briefly, cells were treated with a BrdU label at a 1:2000 dilution for 24 h after the initial 72 h treatment with TGFβ+/−drugs. BrdU incorporation was measured using the BrdU Cell Proliferation Assay kit (Calbiochem, San Diego, Calif.) at 450-540 nm using a Varioskan microplate reader.
While salinomycin and other polyether ionophores blocked myofibroblast formation, it was next assessed whether these effects were a result of toxicity and/or due to a block of cell proliferation. Though the treatment doses are relatively low (efficacy in 100-250 nM range), a loss of cell viability could still be a possibility. To test this, human fibroblasts were treated with vehicle (DMSO), 50-250 nM salinomycin alone, TGFβ or TGFβ plus 250 nM salinomycin. As a positive control, fibroblasts were treated with the cytotoxic drug, puromycin. Treated cells were cultured in the presence of alamar blue reagent, which measures mitochondrial oxidation-reduction (REDOX) potential and serves as a quantitative viability sensor. After 72 hours of culture, alamar blue fluorescence was measured to assay cell viability (FIG. 4A). […]

`CC[C@@H](C(=O)[C@@H](C)[C@@H](O)[C@H](C)[C@@H]1O[C@@H]([C@@H](CC)C(=O)O)CC[C@@H]1C)[C@H]1O[C@]2(C=C[C@@H](O)[C@]3(CC[C@@](C)([C@H]4CC[C@](O)(CC)[C@H](C)O4)O3)O2)[C@H](C)C[C@@H]1C` [salinomycin] was tested, and the “block of TGFβ induced proliferation” value was 4 to 5 fold.
